# Some of the results follow. Only a few entries rise above the background.
# B1: 4-127.3 (protein)
# chain 1: QVQLQESGPGLVKPSETLSLTCAVSGYSISSGYGWSWIRQPPGKGLEWIGYIGGSSGSTNYNPSLKSRVTVSKDTSKNQFSLKLSSVTAADTAVYYCARADYCTSTTCYGPNRFDVWGPGVLVTVSS
# chain 2: QAAPTQSPSVSGSAGQSVTISCTGSSSDIGYYNGVSWYQHHPGKAPKLMIYEVSKRPSGVSNRFSGSKSGNTASLTISGLQAADEADYFCSSYAGSGTYIFGAGTRLTVL
# Columns and labels:
# Test in all cases: fluorescence intensity of antibody binding to polysaccharide-coupled beads; higher = stronger binding
# [1] = molecular target: pneumococcal polysaccharide Pn13
# Protocol: (§1)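 Recombinant rhesus-murine chimeric IgG1 antibodies were tested against antigen-coupled MagPlex beads in a 96-plex Luminex direct immunoassay (dLIA). The beads carried pneumococcal capsular polysaccharides of 93 serotypes plus C-polysaccharides. Antibody was added at 0.1–12,500 ng/mL for 1 h, then PE anti-mouse IgG, and net MFI was read on a Bio-Plex 3D. Only the rhesus variable regions are printed; constant regions are murine IgG1/kappa/lambda, and the signal peptide is MGWSCIILFLVATATGVHS.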
# [2] = molecular target: pneumococcal polysaccharide Pn14
# Protocol: as §1
# [3] = molecular target: pneumococcal polysaccharide Pn15A
# Protocol: as §1
# [4] = molecular target: pneumococcal polysaccharide Pn15B
# Protocol: as §1
# [5] = molecular target: pneumococcal polysaccharide Pn15C
# Protocol: as §1
# [6] = molecular target: pneumococcal polysaccharide Pn15F
# Protocol: as §1
# [7] = molecular target: pneumococcal polysaccharide Pn16A
# Protocol: as §1
# [8] = molecular target: pneumococcal polysaccharide Pn16F
# Protocol: as §1
# [9] = molecular target: pneumococcal polysaccharide Pn17A
# Protocol: as §1
# [10] = molecular target: pneumococcal polysaccharide Pn17F
# Protocol: as §1
# [11] = molecular target: pneumococcal polysaccharide Pn18A
# Protocol: as §1
# [12] = molecular target: pneumococcal polysaccharide Pn18B
# Protocol: as §1
# [13] = antibody concentration 0.1 ng/mL
# [14] = antibody concentration 0.534724 ng/mL
# [15] = antibody concentration 2.8593 ng/mL
# [16] = antibody concentration 15.2894 ng/mL
# [17] = antibody concentration 81.7561 ng/mL
# [18] = antibody concentration 437.17 ng/mL
# [19] = antibody concentration 2337.65 ng/mL
# [20] = antibody concentration 12500 ng/mL
binder,measurement,setting,value
B1,fluorescence intensity,[1]; [13],19 MFI
same,fluorescence intensity,[1]; [14],18.8 MFI
same,fluorescence intensity,[1]; [15],18 MFI
same,fluorescence intensity,[1]; [16],19.5 MFI
same,fluorescence intensity,[1]; [17],18.5 MFI
same,fluorescence intensity,[1]; [18],19.5 MFI
same,fluorescence intensity,[1]; [19],20 MFI
same,fluorescence intensity,[1]; [20],28.2 MFI
same,fluorescence intensity,[2]; [13],15 MFI
same,fluorescence intensity,[2]; [14],15.5 MFI
same,fluorescence intensity,[2]; [15],16 MFI
same,fluorescence intensity,[2]; [16],15.5 MFI
same,fluorescence intensity,[2]; [17],15 MFI
same,fluorescence intensity,[2]; [18],17 MFI
same,fluorescence intensity,[2]; [19],23 MFI
same,fluorescence intensity,[2]; [20],72.5 MFI
same,fluorescence intensity,[3]; [13],14 MFI
same,fluorescence intensity,[3]; [14],13.5 MFI
same,fluorescence intensity,[3]; [15],13 MFI
same,fluorescence intensity,[3]; [16],14 MFI
same,fluorescence intensity,[3]; [17],13 MFI
same,fluorescence intensity,[3]; [18],13.5 MFI
same,fluorescence intensity,[3]; [19],14.5 MFI
same,fluorescence intensity,[3]; [20],16 MFI
same,fluorescence intensity,[4]; [13],19 MFI
same,fluorescence intensity,[4]; [14],20 MFI
same,fluorescence intensity,[4]; [15],20.5 MFI
same,fluorescence intensity,[4]; [16],20.5 MFI
same,fluorescence intensity,[4]; [17],20.2 MFI
same,fluorescence intensity,[4]; [18],19.8 MFI
same,fluorescence intensity,[4]; [19],24.8 MFI
same,fluorescence intensity,[4]; [20],32.8 MFI
same,fluorescence intensity,[5]; [13],17.5 MFI
same,fluorescence intensity,[5]; [14],19.5 MFI
same,fluorescence intensity,[5]; [15],16.5 MFI
same,fluorescence intensity,[5]; [16],19 MFI
same,fluorescence intensity,[5]; [17],21 MFI
same,fluorescence intensity,[5]; [18],20.5 MFI
same,fluorescence intensity,[5]; [19],20.8 MFI
same,fluorescence intensity,[5]; [20],25.2 MFI
same,fluorescence intensity,[6]; [13],19 MFI
same,fluorescence intensity,[6]; [14],18.5 MFI
same,fluorescence intensity,[6]; [15],18 MFI
same,fluorescence intensity,[6]; [16],18.5 MFI
same,fluorescence intensity,[6]; [17],16.5 MFI
same,fluorescence intensity,[6]; [18],17.5 MFI
same,fluorescence intensity,[6]; [19],19 MFI
same,fluorescence intensity,[6]; [20],25.5 MFI
same,fluorescence intensity,[7]; [13],17 MFI
same,fluorescence intensity,[7]; [14],16.5 MFI
same,fluorescence intensity,[7]; [15],14 MFI
same,fluorescence intensity,[7]; [16],14.2 MFI
same,fluorescence intensity,[7]; [17],14 MFI
same,fluorescence intensity,[7]; [18],15.5 MFI
same,fluorescence intensity,[7]; [19],16 MFI
same,fluorescence intensity,[7]; [20],23.2 MFI
same,fluorescence intensity,[8]; [13],26 MFI
same,fluorescence intensity,[8]; [14],26 MFI
same,fluorescence intensity,[8]; [15],25.5 MFI
same,fluorescence intensity,[8]; [16],25.5 MFI
same,fluorescence intensity,[8]; [17],25.5 MFI
same,fluorescence intensity,[8]; [18],26.5 MFI
same,fluorescence intensity,[8]; [19],29 MFI
same,fluorescence intensity,[8]; [20],35 MFI
same,fluorescence intensity,[9]; [13],23.5 MFI
same,fluorescence intensity,[9]; [14],20.5 MFI
same,fluorescence intensity,[9]; [15],21.5 MFI
same,fluorescence intensity,[9]; [16],21 MFI
same,fluorescence intensity,[9]; [17],22.5 MFI
same,fluorescence intensity,[9]; [18],22 MFI
same,fluorescence intensity,[9]; [19],22 MFI
same,fluorescence intensity,[9]; [20],23 MFI
same,fluorescence intensity,[10]; [13],26.8 MFI
same,fluorescence intensity,[10]; [14],27.5 MFI
same,fluorescence intensity,[10]; [15],27 MFI
same,fluorescence intensity,[10]; [16],26.5 MFI
same,fluorescence intensity,[10]; [17],26.5 MFI
same,fluorescence intensity,[10]; [18],27.5 MFI
same,fluorescence intensity,[10]; [19],27.5 MFI
same,fluorescence intensity,[10]; [20],30 MFI
same,fluorescence intensity,[11]; [13],24.2 MFI
same,fluorescence intensity,[11]; [14],24 MFI
same,fluorescence intensity,[11]; [15],24 MFI
same,fluorescence intensity,[11]; [16],22.5 MFI
same,fluorescence intensity,[11]; [17],24 MFI
same,fluorescence intensity,[11]; [18],24 MFI
same,fluorescence intensity,[11]; [19],25.5 MFI
same,fluorescence intensity,[11]; [20],28 MFI
same,fluorescence intensity,[12]; [13],30 MFI
same,fluorescence intensity,[12]; [14],31 MFI

# 4 records picked at random from the list so far:
binder,measurement,setting,value
B1,fluorescence intensity,[7]; [20],23.2 MFI
same,fluorescence intensity,[12]; [13],30 MFI
same,fluorescence intensity,[7]; [14],16.5 MFI
same,fluorescence intensity,[10]; [18],27.5 MFI

# As a short view, part of the list above:
binder,measurement,setting,value
B1,fluorescence intensity,[2]; [17],15 MFI
same,fluorescence intensity,[2]; [18],17 MFI

# — the supplement of paper PMC11438910
